For 56 compounds, AC50 results are on record in PubChem BioAssay AID1487 (National Center for Advancing Translational Sciences (NCATS), 2009).

A short description of the assay: qHTS Assay for Modulators of Lamin A Splicing. The following applies: HeLa LMNA splicing GFP/RFP minigene ratio, 48 h. The method in brief:
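Read-out is the ratio of GFP to DsRed2 object intensity, acquired by 488 nm laser-scanning cytometry on HeLa lamin A-EGFP minigene reporter cells. Compound incubation 48 hrs at 37 °C in Opti-MEM with 2% FBS; DMSO 0.5% final.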
(In qHTS, concentration-response curves come from the screen itself.)

Where [1] appears, read: measured here: RFP viability control channel.
Where [2] appears, read: measured here: GFP splicing reporter channel.

The list shows a part of the results. These are further read-outs of the screen, such as a control signal, another cell line or another target. No call is given for them. Most of these compounds were active or inconclusive in the main read-out, so they are no random draw. The note in brackets gives the kind of curve behind each potency; many fits are weak.

For orientation: AC50 means the concentration at which the activity in the assay is half-maximal. `COc1ccc(-c2oc3ncnc(NCCN4CCOCC4)c3c2-c2ccc(OC)cc2)cc1`: the AC50 under setting [1] was 17.8 µM [rising, partial curve].
On the same count and under the same terms, the value for `CC(=O)Nc1ccccc1OCC(=O)NCCc1ccc(Cl)cc1Cl` was 31.6 µM [rising, partial curve, poor fit].
With `COc1ccc(CCN(C)Cc2nc(Cc3ccc(OC)c(OC)c3)no2)cc1OC`, under setting [2], the AC50 is 22.4 µM [falling, single point].
In the case of `CCC(=O)Nc1ccc(Cl)c(NC(=S)NC(=O)COc2ccc(Cl)cc2)c1`, the AC50 under setting [2] is 3.98 µM [rising, partial curve, poor fit] and the AC50 under setting [1] is 3.98 µM [rising, single point].
As to `Cc1onc(-c2ccccc2)c1C(=O)Nc1nc(-c2ccc(F)c(F)c2)cs1`, the AC50 under setting [2] is 6.31 µM [rising, single point].
The same measure, in the same setting: under `COc1cccc(-c2[nH]c3c(c2-c2c(-n4cccc4)n(C)c(=O)[nH]c2=O)c(=O)[nH]c(=O)n3C)c1` stands 0.0126 µM [rising, full curve, poor fit].
With `C/C(Cl)=C\Cn1c(NCCc2ccccc2)nc2c1c(=O)n(C)c(=O)n2C`, the AC50 is 2.24 µM [rising, full curve, poor fit] under setting [2] and 3.16 µM [rising, full curve] under setting [1].
With `Cc1ccc(N(CC(=O)Nc2cccc(C)c2)S(=O)(=O)c2cccc3nonc23)cc1`, the AC50 under setting [2] was 31.6 µM [rising, single point] and the half-maximal activity concentration (AC50) under setting [1] was 20 µM [rising, single point].
`CN(c1ccccc1)c1ccc(/C=C(\CCC(=O)O)c2nc3ccccc3s2)cc1[N+](=O)[O-]`: the AC50 under setting [1] was 12.6 µM [rising, partial curve, poor fit].
As to `Cc1ccc(C(=O)N2CCc3cc(CNC(=O)c4ccnn4C)ccc32)cc1`, the AC50 under setting [2] is 35.5 µM [falling, single point].
Consider `CC(C)CC(C)NNC(=O)c1cc2ccccc2[nH]1` (configuration not stated), for which the AC50 under setting [1] is 0.447 µM [falling, partial curve, poor fit].
For the compound `CCC[n+]1c(C)sc2c3c(ccc21)CCCC3`, the AC50 under setting [1] was 35.5 µM [falling, single point].
Still for that read-out and setting: the value for `Cn1c(=O)c2ccccc2n(Cc2ccccc2F)c1=O` was 35.5 µM [rising, single point].
Take `COc1c(OC(C)=O)ccc(/C=C/c2ccc3cccc(OC)c3n2)c1[N+](=O)[O-]`: the AC50 under setting [2] is 2.82 µM [rising, partial curve, poor fit].
For the compound `COc1ccc2nc3ccccc3nc2c1`, the AC50 under setting [1] is 10 µM [falling, partial curve, poor fit].
With `O=C(NCc1ccc2c(c1)CCN2C(=O)c1ccccc1)c1ccc(Br)o1`, the AC50 was 22.4 µM [falling, partial curve, poor fit] under setting [2] and 35.5 µM [falling, single point] under setting [1].
Turning to `Cc1nnn(-c2nonc2N)c1C(=O)N/N=C/c1ccccc1O`, the AC50 under setting [1] was 5.01 µM [rising, single point].
Turning to `N#Cc1cccc(NC(=O)Cc2ccccc2)c1`, the AC50 is 3.55 µM [rising, partial curve, poor fit] under setting [2] and 3.16 µM [rising, partial curve, poor fit] under setting [1].
`O=C(O)CCN1C(=O)CC(N2C(=O)/C(=C/c3ccc(Cl)cc3)SC2=S)C1=O` (configuration not stated): under setting [1], the AC50 is 22.4 µM [rising, partial curve, poor fit].
Still for that read-out and setting: the value for `COc1ccc(-c2noc(CSc3nnc(Cc4ccccc4)n3-c3ccc(Cl)cc3)n2)cc1` was 11.2 µM [rising, single point].
For the compound `COC(=O)c1ccc2c(=O)n(CCCCCC(=O)N3CCN(c4cc(Cl)ccc4C)CC3)c(=O)[nH]c2c1`, the AC50 reads like this: under setting [2], 5.01 µM [falling, full curve, poor fit]; under setting [1], 3.98 µM [falling, partial curve].
With `Cn1c(C(=O)NCCN2CCc3ccccc3C2)cc2c(=O)[nH]c3ccccc3c21`, under setting [1], the AC50 was 0.282 µM [rising, partial curve].
`COc1cc(C(=S)N(C)C)ccc1O`: the AC50 under setting [2] is 0.794 µM [rising, full curve].
Same read-out and setting: under `O=c1c2cc(NC(=S)N3CCCC3)ccc2nc2n1CCCCC2` stands 3.16 µM [falling, partial curve, poor fit].
Still for that read-out and setting: under `CC1(C(=O)Nc2cccc(S(=O)(=O)N3CCOCC3)c2)Cc2ccccc2C(=O)O1` (configuration not stated) stands 0.355 µM [rising, full curve, poor fit].
For the compound `CC12CCC(C/C1=N/OC(=O)c1cccc([N+](=O)[O-])c1)C2(C)C` (configuration not stated), the concentration at half-maximal activity (AC50) was 10 µM [falling, partial curve] under setting [2] and 0.00316 µM [falling, full curve, poor fit] under setting [1].
For `O=C(O)c1cc(-c2ccco2)nc2ccc(Br)cc12`, the AC50 under setting [1] was 0.562 µM [falling, full curve, poor fit].
On the same count and under the same terms, under `O=c1oc2ccccc2c(NCc2cccc(F)c2)c1[N+](=O)[O-]` stands 35.5 µM [rising, single point].
As to `O=C(Nc1cccc(C(=O)N2CCN(c3ccccc3F)CC2)c1)c1nsc2ccccc12`, the AC50 under setting [2] is 10 µM [falling, partial curve, poor fit].
Turning to `CC1=CN2C(=N)/C(=C/c3ccc(Sc4ccc(C)cc4)o3)C(=O)N=C2S1`, under setting [1], the AC50 was 17.8 µM [rising, single point].
With `Fc1ccc(NC(=S)Nc2ccc(Cl)cc2)cc1`, under setting [2], the AC50 is 0.0316 µM [falling, full curve].
Consider `COc1ccc(C(=O)OCc2cc3cccc(C)c3[nH]c2=O)cc1`, for which, under setting [1], the AC50 was 0.112 µM [rising, full curve, poor fit].
Same read-out and setting: the value for `Cc1ccc(OCCn2c(C3CC(=O)N(Cc4ccccc4)C3)nc3ccccc32)cc1` (configuration not stated) was 12.6 µM [rising, partial curve].
Consider `Cc1ccccc1C(=O)Nc1ccc2nc(Nc3cccc(C(F)(F)F)c3)cc(C)c2c1`, for which, under setting [2], the AC50 was 0.1 µM [falling, full curve].
Consider `COc1cccc(CNCCc2c[nH]c3ccccc23)c1OCc1ccccc1`, for which the concentration at half-maximal activity (AC50) under setting [1] is 22.4 µM [rising, partial curve, poor fit].
The same measure, in the same setting: under `CCOc1cc(N2CCOCC2)c(OCC)cc1NC(=O)Cc1ccc(OC)c(OC)c1` stands 12.6 µM [rising, partial curve].
In the case of `COc1cc(N)c(Cl)cc1C(=O)NC1CCN(Cc2ccccc2)CC1`, the AC50 under setting [2] was 0.282 µM [falling, full curve] and the AC50 under setting [1] is 1.12 µM [rising, partial curve, poor fit].
With `N[C@H](Cc1cc(I)c(Oc2ccc(O)c(I)c2)c(I)c1)C(=O)O`, the AC50 is, setting by setting: under setting [2], 5.62 µM [falling, single point]; under setting [1], 12.6 µM [falling, single point].
Regarding `COc1ccc(Nc2nc(N3CCCC3)nc3ccccc23)c(OC)c1`, the AC50 under setting [1] is 20 µM [rising, partial curve, poor fit].
The same measure, in the same setting: under `c1ccc2c(c1)ncn2CCOCCOCCn1cnc2ccccc21` stands 35.5 µM [rising, single point].
`O=C1CC(/C=C/c2cccnc2)=Nc2ccccc2N1`: the AC50 under setting [1] is 35.5 µM [rising, single point].
Same read-out and setting: the value for `COc1ccc(CCNc2ncnc3[nH]ncc23)cc1OC` was 35.5 µM [rising, single point].
Take `S=P(N1CC1)(N1CC1)N1CC1`: the AC50 was 0.141 µM [falling, full curve, poor fit] under setting [2] and 10 µM [rising, partial curve] under setting [1].
For `CCOc1ccccc1CNC(=O)C1CCN(S(=O)(=O)c2c(C)noc2/C=C/c2ccc(C)cc2)CC1`, the AC50 under setting [2] is 11.2 µM [falling, partial curve, poor fit] and the AC50 under setting [1] is 10 µM [falling, partial curve].
For the compound `COc1ccc(NC(=O)c2ccc3ccccc3n2)cc1S(=O)(=O)N1CCCCC1`, the AC50 under setting [1] is 22.4 µM [rising, single point].
Same read-out and setting: under `O=C(Nc1cccc(S(=O)(=O)NC2=NCCCCC2)c1)c1cc(-c2ccncc2)nc2ccccc12` stands 11.2 µM [rising, single point].
On to `COc1ccc(/C=C/C(=O)N2CCN(c3ccccc3)CC2)cc1S(=O)(=O)N1CCOCC1`, for which, under setting [2], the AC50 is 17.8 µM [falling, partial curve, poor fit].
In the case of `CSc1ncccc1C(=O)N1CCCC(C(=O)c2ccc3ccccc3c2)C1` (configuration not stated), the AC50 reads like this: under setting [2], 8.91 µM [falling, partial curve]; under setting [1], 11.2 µM [falling, partial curve, poor fit].
With `COc1ccc(/C=N/NC(=O)CNC(=O)c2ccc(S(=O)(=O)N3CCCC3)cc2)c(OC)c1`, the AC50 under setting [1] was 0.2 µM [falling, full curve, poor fit].
For the compound `CCCOc1ccc2oc(=O)c3c(c2c1)CCCN3C(=O)CN(C)Cc1ccccc1`, the AC50 under setting [2] is 15.8 µM [rising, single point] and the AC50 under setting [1] was 17.8 µM [rising, partial curve].
As for `CCC(C(=O)c1ccc(O)cc1)c1ccccc1` (configuration not stated), the AC50 is, setting by setting: under setting [2], 14.1 µM [rising, single point]; under setting [1], 22.4 µM [rising, single point].
In the case of `CCCCOC(=O)c1[nH]c2c(c1C)C(=O)CC(c1cc(OC)c(OC)c(OC)c1)C2` (configuration not stated), the AC50 under setting [1] was 0.0398 µM [rising, full curve, poor fit].
Turning to `COc1ccc(CNC(=O)C(C)N2Cc3ccccc3C2=O)cc1` (configuration not stated), the AC50 under setting [2] is 0.0891 µM [falling, full curve, poor fit].
On to `N#Cc1c(-c2ccc3c(c2)OCO3)ccn2nc(-c3cccc(C(F)(F)F)c3)nc12`, for which the AC50 reads like this: under setting [2], 22.4 µM [falling, single point]; under setting [1], 20 µM [falling, partial curve].
In the case of `CCOC(=O)c1c(NC(=O)c2cnn3c2NC(c2cccc(OC)c2)CC3C(F)(F)F)sc2c1CCCC2` (configuration not stated), under setting [1], the AC50 is 3.55 µM [rising, full curve, poor fit].
On to `O=C(COC(=O)C12CC3CC(CC(Br)(C3)C1)C2)Nc1cccnc1Cl`, for which the AC50 is, setting by setting: under setting [2], 3.98 µM [falling, partial curve, poor fit]; under setting [1], 0.00891 µM [falling, full curve].
